From PubChem BioAssay AID2685 (National Center for Advancing Translational Sciences (NCATS), 2010)
Some of the results follow. Shown are side measurements of this screen, not its main read-out; they come without a call. Compounds called inactive in the main read-out are mostly missing here. Potencies come from curve fits of mixed quality, noted in brackets.

Assay: qHTS Assay for Lipid Storage Modulators in Drosophila S3 Cells;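 as to cell number change: cells counted by Cell Tracker Red CMTPX staining in the red channel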
Details: BODIPY lipid droplet fluorescence, 18-24 h; for cell number change: measured here: cell count max response, cells fed with added oleic acid
Outline: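 Laser-scanning cytometry quantifies lipid droplet accumulation (500–530 nm total intensity; droplet/cell object ratio) in oleic acid-fed (400 uM added) Drosophila S3 cells treated with a concentration series. 20 uM Triacsin C defined 100% inhibition.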

[1] = measured here: lipid fluorescence (Fed channel) AC50, cells fed with added oleic acid
[2] = measured here: cell number channel AC50, cells fed with added oleic acid

C=CCn1c(CCNC(=O)c2cccs2)n[nH]c1=S
cell number change: 28.1%

COc1cc(CCC(=O)Nc2sccc2C#N)cc(OC)c1OC
cell number change: 24.4%

CC(C)C(=O)Nc1cccc(NC(=O)c2ccc(Cl)cc2Cl)c1
AC50 [1]: 29.1 µM [rising, partial curve, poor fit]

Cc1ccccc1OCC(=O)O/N=C(\N)c1ccncc1
cell number change: 2.52%

COc1ccc(S(=O)(=O)N2CCOCC2)cc1NC(=O)CSc1n[nH]c(C(C)C)n1
AC50 [1]: 6.51 µM [rising, single point]

CCOc1ccc(C(=O)NNC(=O)CCNC(=O)c2ccc(Br)cc2)cc1OC
cell number change: 9.65% | AC50 [1]: 29.1 µM [rising, single point]

C/C=C/c1ccc(OCC(=O)Nc2ccncc2)c(OC)c1
cell number change: -14.3% | AC50 [1]: 29.1 µM [falling, single point]

CC(=O)Nc1ccc(SCC(=O)c2cc(C)n(CC(F)(F)F)c2C)cc1
cell number change: 105% | AC50 [2]: 23.1 µM [rising, single point] | AC50 [1]: 6.51 µM [falling, partial curve]

OC1CCCN(CC(O)COC(c2ccc(F)cc2)c2ccc(F)cc2)C1 (configuration not stated)
AC50 [2]: 2.31 µM [rising, partial curve]

CC(OC(=O)CCCN=C1NS(=O)(=O)c2ccccc21)C(=O)N(C)c1ccccc1 (configuration not stated)
cell number change: -4.38%

COc1ccc(S(=O)(=O)N2CCc3ccccc32)cc1C(=O)OCc1nnc(-c2ccccc2)o1
cell number change: 26.3% | AC50 [1]: 9.2 µM [rising, partial curve]

CCc1ccc(N(CC(=O)NC2CCCC2)C(=O)CCC(=O)Nc2ccccn2)cc1
cell number change: 27%

CCOc1ccc(NC(=O)Cn2c(=O)n(CCCC(=O)NC3CCN(Cc4ccccc4)CC3)c(=O)c3ccccc32)cc1
cell number change: -10.3% | AC50 [1]: 29.1 µM [rising, single point]

CCN1CCN(C(=O)C2CC(=O)N(c3ccc(Cl)cc3)C2)CC1 (configuration not stated)
cell number change: 24.8% | AC50 [1]: 29.1 µM [rising, single point]

COc1cccc(CN2C(=O)C(C)Oc3ccccc32)c1 (configuration not stated)
cell number change: 16.9% | AC50 [1]: 0.0651 µM [rising, full curve, poor fit]

Cc1ccc(-c2nnn(CCOc3cccc(Br)c3)n2)cc1
cell number change: -31.5% | AC50 [2]: 7.31 µM [falling, partial curve, poor fit]

CC(C)N(Cc1nc(-c2ccccc2)no1)C(=O)c1ccc(Cl)cc1
cell number change: -0.0918% | AC50 [1]: 29.1 µM [rising, single point]

O=C(CCCC(=O)n1cnc2ccccc21)n1cnc2ccccc21
cell number change: -6.47%

Cc1cccc(C)c1N=Cc1c(C(F)(F)F)[nH][nH]c1=O
cell number change: -33.1% | AC50 [1]: 16.4 µM [falling, single point]

Cc1cc(C)c(C(=O)COc2cccnc2[N+](=O)[O-])cc1C
cell number change: -78.8% | AC50 [2]: 20.6 µM [falling, single point] | AC50 [1]: 29.1 µM [falling, single point]

Cc1cc(C(=O)CN2C(=O)NC3(CCCc4ccccc43)C2=O)c(C)n1Cc1cccs1 (configuration not stated)
cell number change: 39.4% | AC50 [2]: 32.6 µM [rising, single point] | AC50 [1]: 0.411 µM [rising, full curve, poor fit]

CC(C)(C)C1CCC(C(=O)Nc2ccccc2)CC1 (configuration not stated)
cell number change: 14.1% | AC50 [1]: 2.31 µM [falling, partial curve]

Cc1ccc(-c2oc3ccccc3c(=O)c2O)cc1
cell number change: 31.4% | AC50 [1]: 6.51 µM [falling, single point]

O=C(CSc1ncnc2nc[nH]c12)N1CCN(c2ccc(Cl)cc2)CC1
cell number change: -32.7% | AC50 [2]: 2.91 µM [falling, full curve] | AC50 [1]: 2.59 µM [falling, full curve]

Cc1[nH]n(-c2ccccc2)c(=O)c1N=Nc1ccccc1C(=O)O
cell number change: -26.9% | AC50 [1]: 4.61 µM [falling, single point]

CC(OC(=O)c1ccccc1NCCO)C(=O)Nc1ccc(S(=O)(=O)N2CCOCC2)cc1 (configuration not stated)
cell number change: 5.21% | AC50 [1]: 0.00461 µM [rising, full curve, poor fit]

CCCOc1ccc(C(=O)NCCC(=O)NCCCC(=O)OCC)cc1
cell number change: 10%

COc1cccc(-n2ccnc2SCC(=O)NCc2ccccc2)c1
cell number change: 16.3% | AC50 [1]: 0.651 µM [rising, partial curve, poor fit]

Oc1ccc(N2CCN(c3ncnc4sc(-c5ccccc5)cc34)CC2)cc1
cell number change: -15.6%

O=C(c1cccn2c(=O)c3ccc(Cl)cc3nc12)N1CCN(Cc2ccc3c(c2)OCO3)CC1
cell number change: 35.5% | AC50 [2]: 5.8 µM [rising, single point]

CC(C)C(=O)Nc1cccc(C(=O)Nc2ccc(S(=O)(=O)Nc3nccs3)cc2)c1
cell number change: -7.66% | AC50 [1]: 29.1 µM [falling, single point]

Cc1ccc(-c2cc(C(F)(F)F)nn2-c2ccc(S(N)(=O)=O)cc2)cc1
cell number change: -12.4% | AC50 [1]: 3.26 µM [falling, single point]

O=C(CN1CCN(S(=O)(=O)c2ccc(Cl)cc2)CC1)NCc1cccs1
cell number change: 63% | AC50 [2]: 20.6 µM [rising, single point]

Cc1ccc(C)c(NC(=O)c2cc3ccccc3o2)c1
cell number change: 19.6%

CNc1nc2c3ccccc3n(C(C)=O)c2s1
cell number change: -5.96%

COc1ccc(NC(=O)C(=O)NCCC2CCCCN2S(=O)(=O)c2cccs2)cc1 (configuration not stated)
cell number change: 5.21% | AC50 [1]: 0.184 µM [rising, full curve]

O=C1SCC(c2ccc(Cl)cc2Cl)=NN1Cc1nnc(-c2ccccc2)o1
cell number change: 33% | AC50 [2]: 7.31 µM [rising, partial curve] | AC50 [1]: 29.1 µM [rising, single point]

O=C(CCCO)c1ccc2c(c1)OCCO2
AC50 [1]: 0.0058 µM [falling, full curve, poor fit]

CC(=O)O[C@@]1(C)C[C@@H](O)[C@]2(O)C=CO[C@@H](O[C@@H]3O[C@H](CO)[C@@H](O)[C@H](O)[C@H]3O)[C@@H]21
cell number change: -16.6% | AC50 [1]: 16.4 µM [falling, single point]

CCCCOc1ccc(CSc2n[nH]c(C)n2)cc1
AC50 [1]: 18.4 µM [rising, single point]

O=C(Nc1cccnc1)c1ccc(Cl)c(S(=O)(=O)N2CCCCC2)c1
cell number change: -4.95% | AC50 [1]: 29.1 µM [falling, single point]
